Assay results published in patent publication US12083084B2, “Method for enhancing energy production and metabolism in cells” (REPLICON HEALTH OY, priority 2013, dated 2024).
Some of these results come from one statement about several compounds together. For at least one compound, name, drawing or mass did not settle the structure.

System: primary human hepatocytes
Test: Cellular ROS detection (DCFDA) in primary human hepatocytes
Assay type: cell-based
Conditions: donor five, Hi Medium+Palmitic acid, 10 μg/ml, FIG. 11c
Experimental: Primary human hepatocytes were purchased from Celsis In Vitro Technologies (1450 South Rolling Road Baltimore, MD 21227, USA). […] According to the information provided by the Celsis, hepatocytes from each donor should have at least 70% viability and more than 5 million viable cells. The medium for the culture of hepatocytes was provided by Celsis. They were InVitroGRO CP (for plating) medium (Z99029) and InVitroGRO HI (for incubation) medium (Z99009). Antibiotics (Torpedo Antibiotics Mix, Z990007) were also from Celsis. The thaw, plating and culture of cells were carried out according to the instruction provided by the Celsis In Vitro Technologies.
For the measurement of cell viability after treatment of test compound, CytoTox-One Homogeneous Membrane Integrity Assay kit (Promega, G7891) was used. […] The number of viable cells correlates to the fluorescence intensity determined by a fluorescence plate reader (Hidex Chameleon V multiplate reader, Hidex Oy, Turku, Finland) with excitation 544 nm and emission 590 nm. […] The activity of ROS was measured by a fluorescence plate reader (Hidex) with excitation/emission wavelengths of 485 nm/535 nm.
The culture of primary hepatocytes was carried out based on the instructions provided by Celsis. […] Thereafter the viability of cells was determined using the Trypan Blue exclusion method. […]

SMILES	reduction of the level of ROS compared to control
O=C(O)C(=O)CO [HPA, hydroxypyruvate]	30-35%
O=C(O)[C@@H](O)CO [LGA, L-glyceric acid]	30-35%
